# Measurements reported in the supplement of paper PMC8728848.
# The list shows a part of the results.
# How the values were obtained:
# Assay in all cases: glycan array binding signal (z-score within array); higher = stronger binding
# Details in all cases: glycan notation: IUPAC condensed, linker removed
# [1] = target: Fuc(a1-2)[GalNAc(a1-3)]Gal(b1-4)[Fuc(a1-3)]GlcNAc
# In short: (§1)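 Glycan array data came from 3228 arrays in the Consortium for Functional Glycomics database, and only arrays with an available protein sequence were kept. Glycan names were put into IUPAC-condensed notation, and columns mapping to the same glycan were averaged. The binding signal is a within-array Z-score, averaged across arrays of one protein sequence run at different concentrations or buffers and across linkers. A negative Z-score can be read as non-binding.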
# [2] = target: Fuc(a1-2)[GalNAc(a1-4)]Gal(b1-4)GlcNAc
# In short: as §1
# [3] = target: Fuc(a1-2)[GalNAc(b1-3)]Gal
# In short: as §1
# Fuc(a1-3)GlcNAc = target: Fuc(a1-3)GlcNAc
# In short: as §1
# [4] = target: Fuc(a1-3)[Gal(b1-4)]Glc6S
# In short: as §1
# [5] = target: Fuc(a1-3)[Gal(b1-4)]GlcNAc
# In short: as §1
# [6] = target: Fuc(a1-3)[Gal(b1-4)]GlcNAc(b1-2)Man(a1-3)[Fuc(a1-3)[Gal(b1-4)]GlcNAc(b1-2)Man(a1-6)]Man(b1-4)GlcNAc(b1-4)GlcNAc
# In short: as §1
# [7] = target: Fuc(a1-3)[Gal(b1-4)]GlcNAc(b1-2)Man(a1-6)[Gal(b1-4)GlcNAc(b1-2)Man(a1-3)]Man(b1-4)GlcNAc(b1-4)GlcNAc
# In short: as §1
# [8] = target: Fuc(a1-3)[Gal(b1-4)]GlcNAc(b1-3)Gal(b1-3)[Fuc(a1-4)]GlcNAc
# In short: as §1
# [9] = target: Fuc(a1-3)[Gal(b1-4)]GlcNAc(b1-4)Gal(b1-4)[Fuc(a1-3)]GlcNAc
# In short: as §1
# [10] = target: Fuc(a1-3)[Gal(b1-4)]GlcNAc(b1-4)Gal(b1-4)[Fuc(a1-3)]GlcNAc(b1-4)Gal(b1-4)[Fuc(a1-3)]GlcNAc
# In short: as §1
# [11] = target: Fuc(a1-3)[Gal(b1-4)]GlcNAc6S
# In short: as §1
# [12] = target: Fuc(a1-3)[Gal3S(b1-4)]Glc6S
# In short: as §1
# [13] = target: Fuc(a1-3)[Gal3S(b1-4)]GlcNAc
# In short: as §1
# [14] = target: Fuc(a1-3)[Gal3S(b1-4)]GlcNAc6S
# In short: as §1
# [15] = target: Fuc(a1-3)[GalNAc(b1-4)]GlcNAc
# In short: as §1
# Fuc(a1-4)GlcNAc = target: Fuc(a1-4)GlcNAc
# In short: as §1
# Fuc(b1-3)GlcNAc = target: Fuc(b1-3)GlcNAc
# In short: as §1
# Gal(a1-2)Gal = target: Gal(a1-2)Gal
# In short: as §1
# Gal(a1-3)Gal = target: Gal(a1-3)Gal
# In short: as §1
# Gal(a1-3)Gal(b1-3)GlcNAc = target: Gal(a1-3)Gal(b1-3)GlcNAc
# In short: as §1
# Gal(a1-3)Gal(b1-4)Glc = target: Gal(a1-3)Gal(b1-4)Glc
# In short: as §1
# Gal(a1-3)Gal(b1-4)GlcNAc = target: Gal(a1-3)Gal(b1-4)GlcNAc
# In short: as §1
# [16] = target: Gal(a1-3)Gal(b1-4)[Fuc(a1-3)]GlcNAc
# In short: as §1
# Gal(a1-3)GalNAc = target: Gal(a1-3)GalNAc
# In short: as §1
# [17] = target: Gal(a1-3)[Gal(a1-4)]Gal(b1-4)GlcNAc
# In short: as §1
# Gal(a1-4)Gal(b1-4)Glc = target: Gal(a1-4)Gal(b1-4)Glc
# In short: as §1
# Gal(a1-4)Gal(b1-4)GlcNAc = target: Gal(a1-4)Gal(b1-4)GlcNAc
# In short: as §1
# Gal(a1-4)GlcNAc = target: Gal(a1-4)GlcNAc
# In short: as §1
# Gal(a1-6)Glc = target: Gal(a1-6)Glc
# In short: as §1
# Gal(b1-2)Gal = target: Gal(b1-2)Gal
# In short: as §1
# Gal(b1-3)Gal = target: Gal(b1-3)Gal
# In short: as §1
# Gal(b1-3)Gal(b1-4)GlcNAc = target: Gal(b1-3)Gal(b1-4)GlcNAc
# In short: as §1
# Gal(b1-3)GalNAc = target: Gal(b1-3)GalNAc
# In short: as §1
# [18] = target: Gal(b1-3)GalNAc(b1-3)Gal(a1-4)Gal(b1-4)Glc
# In short: as §1
# [19] = target: Gal(b1-3)GalNAc(b1-4)Gal(b1-4)Glc
# In short: as §1
# [20] = target: Gal(b1-3)GalNAc(b1-4)[Neu5Ac(a2-3)]Gal(b1-4)Glc
# In short: as §1
# Gal(b1-3)GlcNAc = target: Gal(b1-3)GlcNAc
# In short: as §1
# [21] = target: Gal(b1-3)GlcNAc(b1-2)Man(a1-3)[Gal(b1-3)GlcNAc(b1-2)Man(a1-6)]Man(b1-4)GlcNAc(b1-4)GlcNAc
# In short: as §1
# [22] = target: Gal(b1-3)GlcNAc(b1-3)Gal(b1-3)GlcNAc
# In short: as §1
# [23] = target: Gal(b1-3)GlcNAc(b1-3)Gal(b1-4)Glc
# In short: as §1
# [24] = target: Gal(b1-3)GlcNAc(b1-3)Gal(b1-4)GlcNAc
# In short: as §1
# [25] = target: Gal(b1-3)[Fuc(a1-4)]GlcNAc
# In short: as §1
# [26] = target: Gal(b1-3)[Fuc(a1-4)]GlcNAc(b1-3)Gal(b1-3)[Fuc(a1-4)]GlcNAc
# In short: as §1
# [27] = target: Gal(b1-3)[Fuc(a1-4)]GlcNAc(b1-3)Gal(b1-4)GlcNAc
# In short: as §1
binder,measurement,setting,value
"SLLPI (Mus musculus), Q9D9X8 (protein) MGICMSMYTQVLVPVDADGDHHILWSRFYERWGSCFNPCAGLVNCLPPHSSALYLCHRMEARSRAPRRQLCPPGITWLALAYLLSCLLASSKAKVFSRCELAKEMHDFGLDGYRGYNLADWVCLAYYTSGFNTNAVDHEADGSTNNGIFQISSRRWCRTLASNGPNLCRIYCTDLLNNDLKDSIVCAMKIVQEPLGLGYWEAWRHHCQGRDLSDWVDGCDF",glycan array binding signal (z-score),[1],-0.816
same,glycan array binding signal (z-score),[2],1.16
same,glycan array binding signal (z-score),[3],-0.933
same,glycan array binding signal (z-score),Fuc(a1-3)GlcNAc,0.327
same,glycan array binding signal (z-score),[4],0.72
same,glycan array binding signal (z-score),[5],0.227
same,glycan array binding signal (z-score),[6],-0.31
same,glycan array binding signal (z-score),[7],-1.25
same,glycan array binding signal (z-score),[8],-0.853
same,glycan array binding signal (z-score),[9],-0.163
same,glycan array binding signal (z-score),[10],-0.572
same,glycan array binding signal (z-score),[11],1.67
same,glycan array binding signal (z-score),[12],2.32
same,glycan array binding signal (z-score),[13],1.59
same,glycan array binding signal (z-score),[14],3.34
same,glycan array binding signal (z-score),[15],-0.837
same,glycan array binding signal (z-score),Fuc(a1-4)GlcNAc,0.191
same,glycan array binding signal (z-score),Fuc(b1-3)GlcNAc,0.367
same,glycan array binding signal (z-score),Gal(a1-2)Gal,-0.146
same,glycan array binding signal (z-score),Gal(a1-3)Gal,0.755
same,glycan array binding signal (z-score),Gal(a1-3)Gal(b1-3)GlcNAc,0.223
same,glycan array binding signal (z-score),Gal(a1-3)Gal(b1-4)Glc,2.15
same,glycan array binding signal (z-score),Gal(a1-3)Gal(b1-4)GlcNAc,1.22
same,glycan array binding signal (z-score),[16],-0.557
same,glycan array binding signal (z-score),Gal(a1-3)GalNAc,-0.379
same,glycan array binding signal (z-score),[17],-0.467
same,glycan array binding signal (z-score),Gal(a1-4)Gal(b1-4)Glc,-0.945
same,glycan array binding signal (z-score),Gal(a1-4)Gal(b1-4)GlcNAc,-1.13
same,glycan array binding signal (z-score),Gal(a1-4)GlcNAc,-1.32
same,glycan array binding signal (z-score),Gal(a1-6)Glc,-0.792
same,glycan array binding signal (z-score),Gal(b1-2)Gal,0.362
same,glycan array binding signal (z-score),Gal(b1-3)Gal,-0.267
same,glycan array binding signal (z-score),Gal(b1-3)Gal(b1-4)GlcNAc,-0.696
same,glycan array binding signal (z-score),Gal(b1-3)GalNAc,-0.559
same,glycan array binding signal (z-score),[18],-1.82
same,glycan array binding signal (z-score),[19],0.094
same,glycan array binding signal (z-score),[20],0.269
same,glycan array binding signal (z-score),Gal(b1-3)GlcNAc,0.884
same,glycan array binding signal (z-score),[21],-0.288
same,glycan array binding signal (z-score),[22],-1.05
same,glycan array binding signal (z-score),[23],0.518
same,glycan array binding signal (z-score),[24],-0.004
same,glycan array binding signal (z-score),[25],-0.352
same,glycan array binding signal (z-score),[26],-0.028
same,glycan array binding signal (z-score),[27],-0.4

# 4 entries picked at random from the list so far, as already listed:
binder,measurement,setting,value
"SLLPI (Mus musculus), Q9D9X8 (protein) MGICMSMYTQVLVPVDADGDHHILWSRFYERWGSCFNPCAGLVNCLPPHSSALYLCHRMEARSRAPRRQLCPPGITWLALAYLLSCLLASSKAKVFSRCELAKEMHDFGLDGYRGYNLADWVCLAYYTSGFNTNAVDHEADGSTNNGIFQISSRRWCRTLASNGPNLCRIYCTDLLNNDLKDSIVCAMKIVQEPLGLGYWEAWRHHCQGRDLSDWVDGCDF",glycan array binding signal (z-score),Gal(a1-3)Gal(b1-4)GlcNAc,1.22
same,glycan array binding signal (z-score),[7],-1.25
same,glycan array binding signal (z-score),[11],1.67
same,glycan array binding signal (z-score),[13],1.59
